These results are taken from PubChem BioAssay AID1347423 (Functional Genomics Laboratory (NCATS/FGL), 2020).

The campaign covered roughly 52,000 sequences. About 210 (0.4%) were called active.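 How the source made its calls: active means gene whose silencing raises cell survival under the drug, median off-target-corrected z-score across its silencing RNAs 2 or more; inactive means the rest.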 The list shows a part of the results.

This assay can be described thus: Resistance to Poly (ADP-Ribose) Polymerase inhibitor: Gene Identification via Genome-wide siRNA Screen. The settings on record: mouse BRCA2 R2336H ES cells, olaparib, CellTiter-Glo viability; stronger effect = higher value. The procedure, abridged:
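Mouse BRCA2 R2336H ES cells were reverse-transfected with siRNA (20 nM final), treated at 48 h with 500 nM olaparib, and read by CellTiter-Glo after 72 h. Scores: MAD-based z per siRNA, median per gene, seed off-target correction.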
A general note: ATP-based viability assays read luminescence as a measure of living cells.
As to GCAAUGGACCUGGUACAAGTT against Myg1, the z-score was inactive: -0.258.
On to GUAACUCGCUUCUUGGUGGTT against LOC545558, for which the z-score was inactive: 0.19.
Turning to GGUCACAACUUUUGAGCACTT against Gna11, the z-score was inactive: 0.648.
For the sequence GCUGAUUGAGCAUCCGAUGTT against Ggt1, the z-score was inactive: 1.79.
For GCUUAUGAUUCCAAGGCAGTT against Serpina6, the z-score is inactive: -0.0529.
“GAAAGAUGGAGACACCCUCTT against 2010319C14Rik”: the z-score is inactive: -1.49.
Regarding “GCUUUACUCUAAUUGAUGUTT against 2310010I16Rik”, the z-score is inactive: -0.126.
In the case of GGGUGUGAUCCAAGCUAUCTT against Rtn4 it was inactive: 0.173.
Turning to GAAGAGAACGCGUUUUUGGTT against Defcr5, the z-score was inactive: 1.31.
“GGUGGAACCUCUGAGAAAATT against 4930562D19Rik”: the z-score was inactive: -0.499.
With “GGUCAAAGUGUGUUAAGUUTT against 2700094F01Rik”, the z-score is inactive: -0.383.
In the case of GGUUCGCCCUUGGAAAUGGTT against Dmap1 it was inactive: -0.757; in that of CCACCCUGAUUUAAGAAGGTT against Ndufs3, inactive: -0.216; in that of GGGUCCAUGAACUCAAGAUTT against BC023814, inactive: -0.438.
In the case of GGAAGGUCAGAACAACGACTT against Tpcn1, the z-score was inactive: -0.502.
As for CCAUCAAAGUCAUCGACGGTT against Birc6, the z-score is inactive: -1.07.
Regarding GGAAUACCUCUACUGACAGTT against Rage, the z-score was inactive: 0.757.
On to GGAACUGUAUGAAAUGCUGTT against Pdgfb, for which the z-score was inactive: -0.774.
Take “CCAAGUAUAGCUCACAUAATT against 9130214H05Rik”: the z-score was inactive: -0.577.
CGUGGAGUGUUAAAGAAUUTT against Il23r: the z-score was inactive: 0.779.
Turning to GGUCUUCAGAUAAUCUUCCTT against Dbccr1, the z-score is inactive: -0.121.
For GGCCCAUCUAAGCUACAGATT against Rab40b, the z-score was inactive: 1.01.
In the case of “GGAAACUUCUGCACUUGGGTT against 4930474M22Rik”, the z-score is inactive: 1.02.
As for CCGGUGGUAAUUUCACCCUTT against C2, the z-score is inactive: 0.15.
Consider “GGAACUCAUUCUAUUGCACTT against A630014H24Rik”, for which the z-score was inactive: 0.188.
Take CCUCAGAGUCCCUAGAAAATT against Gm93: the z-score was inactive: 0.712.
Regarding GCUAUUUUCAGCGAGCUGUTT against Lmo3, the z-score was inactive: -0.468.
Consider GGCAUUGAUUGAUUCCUGUTT against Dnpep, for which the z-score was inactive: -0.356.
Consider GGUGACUGACAUGAUGAUATT against Pard6b, for which the z-score was inactive: -1.65.
Consider “GGAAAUUGAUAAAGACAGATT against D19Ertd737e”, for which the z-score was inactive: -0.811.
Take GGGAAGUCACUUUUGUUCCTT against Top2a: the z-score is inactive: -1.25.
On to GGCGGUACCUCUUCUUCAUTT against Aipl1, for which the z-score is inactive: 0.293.
In the case of GGAUUCAUCAUCUACCCGGTT against C1ql4, the z-score was inactive: 0.998.
In the case of GCUGUCUUUGAACUAUAUATT against Cd200r4, the z-score was inactive: 1.7.
GCAGGCUGCUCGAGAUAAATT against Mitc1: the z-score is inactive: -1.43.
Consider “CCGAAAUCCUACAUAUAUGTT against B430209F14Rik”, for which the z-score is inactive: -0.628.
For “GGUAUAGAUCAGAAGAACUTT against 3110001I22Rik”, the z-score is inactive: -0.505.
On to GGAAGCAUCCUUUGAUGAGTT against Afm, for which the z-score was inactive: -0.168.
Take GCGGACAGGCACAGAAAAATT against Usp3: the z-score was inactive: 0.156.
The figure for GGAACGAUAAGCAACUUUGTT against BC003993 is inactive: -1.89; for GCAAGGAAAAUCUAUACCGTT against Rgs2 it is inactive: -0.0748.
With GUUCAAGAGGGAGCUGGAATT against Pomc1, the z-score is inactive: 1.41.
With GCCAGUCCUGAUAGCAUCATT against Psx1, the z-score is inactive: 0.143.
Turning to GCUUUACGUUCAAGUUUAGTT against Ranbp2, the z-score is inactive: -2.81.
With GAACUGGAGAUCUUCGAACTT against Ltc4s, the z-score was inactive: -1.53.
As for “CAUGUUAUCACUUUUUGGCTT against 2310002F18Rik”, the z-score was inactive: 0.73.
On to “GGAAAUGACCUACGAAGAATT against C230090D14”, for which the z-score was inactive: 2.31.
The figure for GGUCGCCUAUUUCAAGAUATT against Lepre1 is inactive: -0.444; for GGUAGCUAUCAAGGUCAUCTT against Hunk it is inactive: -0.704.
As for CCACUAUUAAACUUCUCAATT against Pex3, the z-score is inactive: -0.153.
As for GGUUUGUUAGACCAUUACGTT against Fgfr1op, the z-score was inactive: 0.0795.
Take CCUUGUAUUCCCAUCAUGCTT against AI467606: the z-score is inactive: 1.49.
The figure for GGCCACCUUCUUUGAGGUATT against Snai1 is inactive: 0.157; for GGAAAGAGAACAUAAAAGATT against Pla2g4a it is inactive: -0.269; for GCACUAAGUCCCAUGUGUCTT against Trim11 it is inactive: -0.803.
In the case of “GCAGACGAGUACCUAGAAATT against 9830147J24Rik”, the z-score was inactive: -2.66.
Turning to GGCGACAUUACAGAAUUGGTT against Iqsec2, the z-score was inactive: 1.21.
On to GGCGAAAAGCGACGCGGCCTT against Basp1, for which the z-score is inactive: 0.954.
The figure for GGAUUACAAGACCAUAGAUTT against Ocilrp1 is inactive: 0.0141.
Take CGGCUCUUAACAUUUUCAGTT against Eef2: the z-score is inactive: -2.06.
As to CCAAUCCAAACGAAGUUAATT against Rgs9, the z-score is inactive: 0.136.
The figure for “GCUAUGAGAUGUAUCCCGGTT against E330017N17” is inactive: 0.336; for GGAUGUUGCUCCAAGUGGATT against Gpr66 it is inactive: 0.667; for “GGCUGACAUUAAAAAGGCATT against 4732437J24Rik” it is inactive: 0.845.
In the case of GGUGUGUUUGCUAUUUCCATT against Olfr259 it was inactive: 1.28.
GGAAGCAAACUUAAAGUGUTT against Ewsr1: the z-score is inactive: -1.5.
On to GCAAAUGUUCGGUAAUUUGTT against BC003281, for which the z-score was inactive: 0.377.
For the sequence UGUGGAACCCAGCACUUUUTT against Olfr458, the z-score is inactive: -1.39.
Turning to GGGAAUUGAUCUAAUUGAATT against E2f5, the z-score was inactive: 2.28.
On to GGAACAUCACUAACAAGUCTT against Cacna1g, for which the z-score is inactive: 0.592.
Turning to GGUAGAAAAUGAUACGUCUTT against Pdcd1lg2, the z-score is inactive: -0.0726.
GGUACCUAGGAUGCUCUCATT against AI661311: the z-score was inactive: -1.58.
As for GAUGUGGCACCCAAACAUCTT against Cdc34, the z-score is inactive: 0.443.
As to CGAGUGGCUACUUUCCACUTT against Olfr152, the z-score is inactive: -1.5.
As to “GGUGCACUACACCACAAACTT against D5Ertd593e”, the z-score was inactive: -0.662.
As for GCCAAGCCAUCUCAUUAAATT against Wdr18, the z-score is inactive: 0.596.
Take GUUUUACAAAUUCCUCCAUTT against Olfr1447: the z-score is inactive: -1.41.
Take GGCUUUGUCUUGAAUGGCUTT against Emr1: the z-score is inactive: 2.5.
Turning to “CCAGCAAGCAAGAUUCCUGTT against 2810409H07Rik”, the z-score was inactive: 0.479.
Consider “CCUCUCAACCACUGACUGATT against 2610029K21Rik”, for which the z-score was inactive: -2.26.
GCCAUGUUCUUUGCUCCCATT against Pigl: the z-score was inactive: 0.229.
On to GGAAGUUAUAAAACAGAACTT against Inpp1, for which the z-score was inactive: 0.809.
As for GCGAGUGUAUCUCAACAGCTT against Pitpnc1, the z-score is inactive: 0.436.
GGAGUUUGUCAACUUCUUCTT against Mcoln3: the z-score was inactive: -0.586.
Turning to “GCCGCACUGUAACUUCAUCTT against D830039M14Rik”, the z-score was inactive: -0.139.
For “GCAUGAUGUGGAGACAAGATT against 2310007F04Rik”, the z-score was inactive: 0.492.
The figure for GGAGAAUUACUCCUUUUUGTT against BC019367 is inactive: 0.112; for CCUGCGUUAAGUGAUAAAGTT against Blm it is inactive: -0.234.
The figure for GGUUGAUGCCGUGAACUCUTT against Pdxk is inactive: 0.302.
In the case of CGACUUGGAACUCACUGGUTT against LOC268885 it was inactive: 1.44.
CCACCGUACUAAACUAUUCTT against Emilin1: the z-score was inactive: 1.21.
As to “CCAUUAUGGGAGGAAGAUUTT against A330019N05Rik”, the z-score is inactive: 0.247.
Take “GGUCCCAAGUCCCUAAGAUTT against A930021G21Rik”: the z-score is inactive: -1.81.
The figure for GCCUGGUAGUUAGUCAGAATT against Tieg3 is inactive: -0.554; for “GGGAAAAUAUCAGCUCAAUTT against D930048N14Rik” it is inactive: -2.2.
GGUGGCCAAACAGGAAAAGTT against Fau: the z-score was inactive: -2.49.
The figure for “GGUGCUUACUGAUUUUUGUTT against 1810015M01Rik” is inactive: -0.437.
For GGAGCUUGAUUCAGGAUGGTT against Ttc3, the z-score was inactive: 0.555.
Turning to GGCAUGAAUAUGCAUUUAGTT against Arrdc3, the z-score was inactive: -1.53.
In the case of GGUACUAGAUAGGAAACACTT against BC006662, the z-score is inactive: -0.0265.
Turning to CGAUUUCAUCGAACACUUCTT against Ccnd1, the z-score is inactive: -0.412.
For the sequence CCCUGAAACCUCGGUGUUUTT against AI662250, the z-score was inactive: -0.418.
In the case of GCCUUGUAUCGUCAUGUGATT against Card14 it was inactive: 0.0924.
For the sequence GGCUAUAAAAGGUACUGAGTT against Myocd, the z-score was inactive: 0.462.
